Experimental data as given in the supplement of paper PMC10849652.
This is one part of the list.

Amino acid sequences for entries named in this document (tags omitted). A change or cut given only in a name is not applied to a line headed by its entry.
UniProt Q629K1: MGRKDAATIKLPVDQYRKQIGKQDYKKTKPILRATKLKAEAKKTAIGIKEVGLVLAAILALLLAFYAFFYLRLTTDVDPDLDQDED
UniProt Q8IYL2: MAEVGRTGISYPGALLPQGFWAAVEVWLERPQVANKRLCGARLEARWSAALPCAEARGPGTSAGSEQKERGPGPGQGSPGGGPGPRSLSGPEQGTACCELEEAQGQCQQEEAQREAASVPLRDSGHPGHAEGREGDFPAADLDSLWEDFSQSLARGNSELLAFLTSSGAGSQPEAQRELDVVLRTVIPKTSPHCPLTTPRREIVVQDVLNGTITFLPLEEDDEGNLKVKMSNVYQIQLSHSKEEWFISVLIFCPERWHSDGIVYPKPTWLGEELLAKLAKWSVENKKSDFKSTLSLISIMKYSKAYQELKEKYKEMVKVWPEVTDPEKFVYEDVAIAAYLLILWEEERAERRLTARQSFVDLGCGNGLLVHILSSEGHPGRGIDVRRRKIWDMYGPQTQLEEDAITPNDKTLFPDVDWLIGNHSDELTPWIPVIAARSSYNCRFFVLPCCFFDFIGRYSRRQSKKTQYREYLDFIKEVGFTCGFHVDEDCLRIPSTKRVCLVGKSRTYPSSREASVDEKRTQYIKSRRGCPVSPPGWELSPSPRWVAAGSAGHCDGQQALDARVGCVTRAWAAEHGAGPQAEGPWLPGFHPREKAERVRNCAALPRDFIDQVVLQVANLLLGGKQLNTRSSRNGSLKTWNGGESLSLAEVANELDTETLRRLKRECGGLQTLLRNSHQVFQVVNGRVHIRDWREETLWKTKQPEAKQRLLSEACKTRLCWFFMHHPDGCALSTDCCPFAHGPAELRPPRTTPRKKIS
UniProt Q13077: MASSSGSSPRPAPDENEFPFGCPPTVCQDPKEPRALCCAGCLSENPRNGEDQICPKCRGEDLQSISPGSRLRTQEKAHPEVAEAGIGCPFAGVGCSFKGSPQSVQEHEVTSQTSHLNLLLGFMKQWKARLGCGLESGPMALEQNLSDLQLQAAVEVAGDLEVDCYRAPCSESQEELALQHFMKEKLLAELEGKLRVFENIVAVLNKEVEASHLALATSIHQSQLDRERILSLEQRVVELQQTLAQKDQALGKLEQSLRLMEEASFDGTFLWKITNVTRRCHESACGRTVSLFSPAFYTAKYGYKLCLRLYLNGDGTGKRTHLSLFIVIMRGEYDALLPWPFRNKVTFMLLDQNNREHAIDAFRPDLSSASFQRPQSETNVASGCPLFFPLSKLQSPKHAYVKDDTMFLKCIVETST
UniProt O00463: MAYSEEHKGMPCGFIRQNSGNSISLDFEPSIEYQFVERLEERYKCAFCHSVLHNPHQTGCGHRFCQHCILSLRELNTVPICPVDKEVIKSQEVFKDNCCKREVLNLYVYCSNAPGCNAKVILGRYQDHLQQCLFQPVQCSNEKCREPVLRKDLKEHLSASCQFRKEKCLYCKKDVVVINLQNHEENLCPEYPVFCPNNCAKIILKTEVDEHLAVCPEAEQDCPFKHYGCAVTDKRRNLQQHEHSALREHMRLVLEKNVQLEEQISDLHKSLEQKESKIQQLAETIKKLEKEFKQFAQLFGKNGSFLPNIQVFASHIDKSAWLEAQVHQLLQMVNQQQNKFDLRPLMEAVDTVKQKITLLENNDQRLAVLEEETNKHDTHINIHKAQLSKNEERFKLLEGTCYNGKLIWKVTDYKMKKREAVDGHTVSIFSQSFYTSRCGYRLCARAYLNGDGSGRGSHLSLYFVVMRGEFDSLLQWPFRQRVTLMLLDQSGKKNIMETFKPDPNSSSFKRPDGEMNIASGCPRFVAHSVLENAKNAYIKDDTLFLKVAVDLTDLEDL
UniProt Q99576: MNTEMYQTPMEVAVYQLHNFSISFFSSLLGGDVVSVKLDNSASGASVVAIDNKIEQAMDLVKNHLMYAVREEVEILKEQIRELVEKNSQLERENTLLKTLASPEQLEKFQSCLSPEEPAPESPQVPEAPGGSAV
UniProt O43734: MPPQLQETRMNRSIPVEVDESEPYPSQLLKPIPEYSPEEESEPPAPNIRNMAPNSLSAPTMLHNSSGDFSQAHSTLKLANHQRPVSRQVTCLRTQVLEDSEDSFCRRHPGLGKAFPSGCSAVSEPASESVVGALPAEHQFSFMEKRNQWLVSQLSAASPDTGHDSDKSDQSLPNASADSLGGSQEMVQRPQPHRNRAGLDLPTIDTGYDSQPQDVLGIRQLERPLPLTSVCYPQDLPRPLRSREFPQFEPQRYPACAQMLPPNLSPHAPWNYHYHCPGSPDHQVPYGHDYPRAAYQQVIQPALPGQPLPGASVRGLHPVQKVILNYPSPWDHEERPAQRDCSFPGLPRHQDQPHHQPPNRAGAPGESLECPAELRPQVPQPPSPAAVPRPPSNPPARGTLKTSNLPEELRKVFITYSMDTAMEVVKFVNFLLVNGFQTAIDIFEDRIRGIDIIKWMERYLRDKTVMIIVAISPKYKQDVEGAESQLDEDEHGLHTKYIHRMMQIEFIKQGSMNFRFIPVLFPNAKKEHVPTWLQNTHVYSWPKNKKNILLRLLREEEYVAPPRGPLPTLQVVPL
UniProt Q9H0U9: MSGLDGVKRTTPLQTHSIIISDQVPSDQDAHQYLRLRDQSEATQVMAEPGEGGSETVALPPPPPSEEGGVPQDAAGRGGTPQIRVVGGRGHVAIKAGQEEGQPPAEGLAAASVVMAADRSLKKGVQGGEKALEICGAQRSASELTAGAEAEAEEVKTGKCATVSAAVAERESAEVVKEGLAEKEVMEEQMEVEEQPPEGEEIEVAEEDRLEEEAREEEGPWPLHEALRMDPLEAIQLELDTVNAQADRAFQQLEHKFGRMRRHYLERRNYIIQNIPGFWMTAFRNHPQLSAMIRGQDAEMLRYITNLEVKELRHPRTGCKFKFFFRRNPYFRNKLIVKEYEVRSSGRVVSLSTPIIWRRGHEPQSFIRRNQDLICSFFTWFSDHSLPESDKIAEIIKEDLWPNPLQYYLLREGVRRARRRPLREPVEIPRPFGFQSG
UniProt Q15035: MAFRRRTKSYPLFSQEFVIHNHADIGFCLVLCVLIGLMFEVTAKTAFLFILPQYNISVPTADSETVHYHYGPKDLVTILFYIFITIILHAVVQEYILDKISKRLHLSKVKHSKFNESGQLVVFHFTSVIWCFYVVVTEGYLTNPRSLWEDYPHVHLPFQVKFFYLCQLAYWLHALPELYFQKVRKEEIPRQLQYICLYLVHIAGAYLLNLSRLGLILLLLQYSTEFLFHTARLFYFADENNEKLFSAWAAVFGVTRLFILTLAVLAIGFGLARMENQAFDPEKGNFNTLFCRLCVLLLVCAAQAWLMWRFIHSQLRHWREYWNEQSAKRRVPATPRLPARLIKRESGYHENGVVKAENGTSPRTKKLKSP
UniProt Q96RU7: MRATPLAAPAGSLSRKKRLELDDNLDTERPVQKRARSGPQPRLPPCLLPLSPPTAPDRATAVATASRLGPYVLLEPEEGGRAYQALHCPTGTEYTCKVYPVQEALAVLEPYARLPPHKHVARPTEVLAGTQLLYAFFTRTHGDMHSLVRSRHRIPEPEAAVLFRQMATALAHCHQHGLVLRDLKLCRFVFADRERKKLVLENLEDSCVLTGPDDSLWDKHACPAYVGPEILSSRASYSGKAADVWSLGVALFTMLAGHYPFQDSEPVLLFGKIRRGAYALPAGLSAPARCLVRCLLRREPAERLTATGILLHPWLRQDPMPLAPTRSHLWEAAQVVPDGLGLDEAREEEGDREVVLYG
UniProt Q8N4P2: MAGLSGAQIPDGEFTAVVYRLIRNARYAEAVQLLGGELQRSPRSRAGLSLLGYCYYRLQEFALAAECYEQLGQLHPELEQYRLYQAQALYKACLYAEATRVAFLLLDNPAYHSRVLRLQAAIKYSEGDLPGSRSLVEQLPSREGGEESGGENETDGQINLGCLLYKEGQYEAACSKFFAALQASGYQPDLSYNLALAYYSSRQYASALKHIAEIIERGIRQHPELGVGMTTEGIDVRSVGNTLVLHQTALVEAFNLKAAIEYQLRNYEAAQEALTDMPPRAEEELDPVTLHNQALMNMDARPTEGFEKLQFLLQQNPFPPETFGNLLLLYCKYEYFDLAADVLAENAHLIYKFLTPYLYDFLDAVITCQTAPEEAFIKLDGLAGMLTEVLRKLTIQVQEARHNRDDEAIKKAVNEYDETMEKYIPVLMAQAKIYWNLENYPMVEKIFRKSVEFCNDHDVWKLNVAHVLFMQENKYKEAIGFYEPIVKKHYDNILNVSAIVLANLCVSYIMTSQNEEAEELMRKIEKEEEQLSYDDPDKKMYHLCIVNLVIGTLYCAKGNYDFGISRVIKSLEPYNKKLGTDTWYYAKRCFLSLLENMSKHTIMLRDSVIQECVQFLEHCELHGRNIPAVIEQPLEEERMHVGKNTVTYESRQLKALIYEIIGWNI
UniProt P53804: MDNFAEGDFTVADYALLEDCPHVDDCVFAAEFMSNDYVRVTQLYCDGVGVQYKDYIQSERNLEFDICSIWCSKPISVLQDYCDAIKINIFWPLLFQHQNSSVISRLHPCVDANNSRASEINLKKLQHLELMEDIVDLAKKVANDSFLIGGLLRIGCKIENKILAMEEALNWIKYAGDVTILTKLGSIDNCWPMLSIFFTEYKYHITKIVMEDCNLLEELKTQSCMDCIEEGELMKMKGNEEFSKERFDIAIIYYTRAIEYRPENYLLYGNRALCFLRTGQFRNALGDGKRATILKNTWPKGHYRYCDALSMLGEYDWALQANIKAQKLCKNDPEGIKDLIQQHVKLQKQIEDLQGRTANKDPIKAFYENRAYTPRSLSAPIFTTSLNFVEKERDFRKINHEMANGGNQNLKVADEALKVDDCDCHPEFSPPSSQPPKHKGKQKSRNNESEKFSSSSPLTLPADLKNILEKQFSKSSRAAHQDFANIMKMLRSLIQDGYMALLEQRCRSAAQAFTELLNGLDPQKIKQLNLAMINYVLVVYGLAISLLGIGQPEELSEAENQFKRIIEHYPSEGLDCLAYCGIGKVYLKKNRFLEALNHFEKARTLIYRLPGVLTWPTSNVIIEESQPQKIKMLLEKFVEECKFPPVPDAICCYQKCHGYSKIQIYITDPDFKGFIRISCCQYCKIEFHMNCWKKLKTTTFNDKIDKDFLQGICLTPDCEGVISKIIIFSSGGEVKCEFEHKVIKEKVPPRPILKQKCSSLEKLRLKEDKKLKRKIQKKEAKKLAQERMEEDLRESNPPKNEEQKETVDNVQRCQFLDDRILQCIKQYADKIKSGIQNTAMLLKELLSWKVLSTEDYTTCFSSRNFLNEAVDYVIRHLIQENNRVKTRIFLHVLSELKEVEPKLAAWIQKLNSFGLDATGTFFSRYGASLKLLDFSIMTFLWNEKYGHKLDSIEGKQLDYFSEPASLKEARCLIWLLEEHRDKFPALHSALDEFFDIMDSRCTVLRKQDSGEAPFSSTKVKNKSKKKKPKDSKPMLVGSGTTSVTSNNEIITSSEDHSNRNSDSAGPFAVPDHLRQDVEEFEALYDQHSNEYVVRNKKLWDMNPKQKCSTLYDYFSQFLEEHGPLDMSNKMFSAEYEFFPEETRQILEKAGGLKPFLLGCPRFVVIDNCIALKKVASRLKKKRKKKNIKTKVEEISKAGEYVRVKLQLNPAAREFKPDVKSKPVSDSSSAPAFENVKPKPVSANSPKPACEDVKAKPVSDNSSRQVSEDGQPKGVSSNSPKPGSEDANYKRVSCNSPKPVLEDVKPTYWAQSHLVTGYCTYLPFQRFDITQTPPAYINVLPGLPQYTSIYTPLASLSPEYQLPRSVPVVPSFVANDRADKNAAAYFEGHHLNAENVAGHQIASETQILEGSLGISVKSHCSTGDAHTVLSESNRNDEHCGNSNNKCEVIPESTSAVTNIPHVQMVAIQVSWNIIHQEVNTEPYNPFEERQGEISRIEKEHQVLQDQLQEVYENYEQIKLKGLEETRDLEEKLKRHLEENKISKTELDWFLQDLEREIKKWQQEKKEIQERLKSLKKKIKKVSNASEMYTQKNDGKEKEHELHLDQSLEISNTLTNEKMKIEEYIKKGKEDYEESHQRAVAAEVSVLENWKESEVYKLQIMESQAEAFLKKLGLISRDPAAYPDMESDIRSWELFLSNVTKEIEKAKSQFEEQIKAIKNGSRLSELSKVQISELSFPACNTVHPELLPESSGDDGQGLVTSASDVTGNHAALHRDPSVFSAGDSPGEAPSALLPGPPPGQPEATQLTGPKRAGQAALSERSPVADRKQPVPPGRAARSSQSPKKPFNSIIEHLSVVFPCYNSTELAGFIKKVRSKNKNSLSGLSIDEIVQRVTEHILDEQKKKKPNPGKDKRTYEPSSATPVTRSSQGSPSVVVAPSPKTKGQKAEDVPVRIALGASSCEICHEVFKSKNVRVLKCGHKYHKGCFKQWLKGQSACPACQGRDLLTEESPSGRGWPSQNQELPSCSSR

Legend:
Assay in all cases: log2 fold change, soluble protein after heating vs DMSO (PISA); higher = thermal stabilisation; K562 lysate, 10 uM; active = over 0.2 and 3.5 SD of the protein, either way, in both replicates (recomputed)
[1] = compound: CC[C@@H]1C(=O)N(C)c2cnc(Nc3ccc(C(=O)NC4CCN(C)CC4)cc3OC)nc2N1C1CCCC1
Summary of the method: (§1)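 Following dounce homogenisation of K562 pellets in PBS pH 7.4 with 1 mM MgCl2, crude extract at 1 mg/mL protein was incubated for 30 min with 10 μM compound. Aliquots were then heated for 3 min over 48°C-58°C and pooled, NP-40 was added to 0.5% at 4°C, and soluble protein was recovered as the supernatant at 21,000xg for 90 min. Channel-sum-equalised TMTpro 16plex LC-MS/MS quantified this protein. Each value, from duplicates, is a log-two fold change in thermal stability relative to solvent controls.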

sotrastaurin = compound: CN1CCN(c2nc(C3=C(c4c[nH]c5ccccc45)C(=O)NC3=O)c3ccccc3n2)CC1 [sotrastaurin]
Summary of the method: as §1

[2] = compound: CNC(=O)C1=CC=CC=C1NC2=NC(=NC=C2Cl)NC3=C(C=C(C=C3)N4CCOCC4)OC
Summary of the method: as §1

encorafenib = compound: COC(=O)N[C@@H](C)CNc1nccc(-c2cn(C(C)C)nc2-c2cc(Cl)cc(NS(C)(=O)=O)c2F)n1 [encorafenib]
Summary of the method: as §1

[3] = compound: COC(=O)[C@H](CCSC)NC(=O)C1=C(C=C(C=C1)NC[C@H](CS)N)C2=CC=CC=C2
Summary of the method: as §1

alisertib = compound: COc1cc(Nc2ncc3c(n2)-c2ccc(Cl)cc2C(c2c(F)cccc2OC)=NC3)ccc1C(=O)O [alisertib]
Summary of the method: as §1

gefitinib = compound: COc1cc2ncnc(Nc3ccc(F)c(Cl)c3)c2cc1OCCCN1CCOCC1 [gefitinib]
Summary of the method: as §1

[4] = compound: CCCS(=O)(=O)Nc1ccc(F)c(C(=O)c2c[nH]c3ncc(Cl)cc23)c1F
Summary of the method: as §1

barasertib = compound: CCN(CCCOc1ccc2c(Nc3cc(CC(=O)Nc4cccc(F)c4)[nH]n3)ncnc2c1)CCOP(=O)(O)O [barasertib]
Summary of the method: as §1

volasertib = compound: CC[C@@H]1C(=O)N(C)c2cnc(Nc3ccc(C(=O)N[C@H]4CC[C@H](N5CCN(CC6CC6)CC5)CC4)cc3OC)nc2N1C(C)C [volasertib]
Summary of the method: as §1

[5] = compound: CCn1c(C(=O)N(C2CC2)C2CC2)cc2c3c(ncn3C)c(Nc3cc(C)n(C)n3)nc21
Summary of the method: as §1

saracatinib = compound: CN1CCN(CCOc2cc(OC3CCOCC3)c3c(Nc4c(Cl)ccc5c4OCO5)ncnc3c2)CC1 [saracatinib]
Summary of the method: as §1

Tubastatin A = compound: CN1CCc2c(c3ccccc3n2Cc2ccc(C(=O)NO)cc2)C1 [Tubastatin A]
Summary of the method: as §1

[6] = compound: CNc1nc(-c2ccc3c(N)n[nH]c3c2)cc(N2C[C@@H](C(=O)NC3CCCCC3)CC[C@H]2C)n1
Summary of the method: as §1

[7] = compound: COc1cc2nc(-c3cc(F)ccc3O)nc(N[C@@H]3CNC[C@H]3C(C)(C)O)c2cc1OC
Summary of the method: as §1

vemurafenib = compound: CCCS(=O)(=O)Nc1ccc(F)c(C(=O)c2c[nH]c3ncc(-c4ccc(Cl)cc4)cc23)c1F [vemurafenib]
Summary of the method: as §1

[8] = compound: CCn1cc(-c2ccnc3[nH]c(-c4cccc(CN(C)C)c4)cc23)c(-c2ccc(NC(=O)N(C)C)cc2)n1
Summary of the method: as §1

[9] = compound: CN1CCC(CNc2ccc3ncc(-c4cccc(OC(F)(F)F)c4)n3n2)CC1
Summary of the method: as §1

alvocidib = compound: CN1CC[C@H](c2c(O)cc(O)c3c(=O)cc(-c4ccccc4Cl)oc23)[C@H](O)C1 [alvocidib]
Summary of the method: as §1

defactinib = compound: CNC(=O)c1ccc(Nc2ncc(C(F)(F)F)c(NCc3nccnc3N(C)S(C)(=O)=O)n2)cc1 [defactinib]
Summary of the method: as §1

Measured: log2 fold change

TRIM68 (UniProt Q6AZZ1)
inactive: [1] -0.111 | sotrastaurin 0.066 | [2] 0.121 | encorafenib -0.346 | [3] -0.005 | alisertib 0.065 | gefitinib -0.052

TTBK2 (UniProt Q6IQ55)
inactive: [1] -0.143 | sotrastaurin -0.093 | [2] 0.094 | encorafenib 0.008 | [3] -0.118

TRIQK (UniProt Q629K1)
inactive: [4] -0.018 | barasertib 0.016 | [1] 0.153 | volasertib 0.018 | [5] 0.045 | saracatinib 0.123 | sotrastaurin -0.049 | Tubastatin A -0.014 | [2] 0.075 | [6] -0.125 | encorafenib -0.137 | [3] -0.489 | [7] -0.065

TRUB2 (UniProt O95900)
inactive: vemurafenib 0.061 | [1] -0.003 | [5] -0.026 | [8] 0.045 | [9] -0.017 | saracatinib 0.044 | alvocidib 0.038 | Tubastatin A -0.058 | [2] 0.218 | defactinib -0.039 | [6] 0.258 | encorafenib 0.018 | [3] 0.078

TRMT44 (UniProt Q8IYL2)
inactive: sotrastaurin 0.067

TRAF1 (UniProt Q13077)
inactive: [5] -0.124 | Tubastatin A 0.079

TRAF5 isoform 2 (UniProt O00463)
inactive: [1] -0.052 | [5] -0.318 | Tubastatin A 0.373 | [2] 0.065 | encorafenib 0.093 | [3] -0.444

TSPYL2 (UniProt Q9H2G4)
inactive: [1] 0.051 | [8] -0.028 | [9] 0.037 | saracatinib 0.072 | sotrastaurin 0.099 | alvocidib 0.04 | [2] 0.019 | [6] 0.084 | encorafenib -0.234 | [3] -0.029 | alisertib -0.113 | gefitinib -0.032

TTC26
inactive: [1] -0.025 | [5] 0.152 | [8] 0.104 | [9] -0.096 | saracatinib -0.018 | alvocidib 0.005 | Tubastatin A 0.091 | [6] 0.243 | encorafenib 0.187 | [3] -0.023 | alisertib -0.13 | gefitinib 0.122

TSC22D3 isoform 3 (UniProt Q99576)
inactive: [5] -0.272 | sotrastaurin -0.132 | Tubastatin A -0.553 | [2] 0.162

TRAF3IP2 (UniProt O43734)
inactive: vemurafenib -0.163 | [5] -0.127 | [8] 0.095 | [9] 0.032 | alvocidib 0.001 | Tubastatin A 0.039 | [2] -0.153 | defactinib -0.085

TSC22D1 isoform 2 (UniProt Q15714)
inactive: [1] -0.133 | [5] 0.083 | sotrastaurin 0.09 | Tubastatin A -0.001 | encorafenib 0.099 | [3] -0.439

TTC17 isoform 2 (UniProt Q96AE7)
inactive: [8] -0.064 | [9] 0.026 | alvocidib 0.051

TSPYL1 (UniProt Q9H0U9)
inactive: [4] 0.047 | barasertib 0.073 | volasertib 0.014 | [5] -0.043 | [8] -0.103 | [9] 0.022 | saracatinib -0.012 | sotrastaurin 0.152 | alvocidib 0.17 | Tubastatin A 0.18 | [2] 0.034 | [6] -0.004 | alisertib 0 | [7] -0.045 | gefitinib 0.03

TTF1 (UniProt Q15361)
inactive: [1] 0.087 | encorafenib 0.339 | [3] 0.3 | alisertib -0.024 | gefitinib -0.151

TRAPPC2L (UniProt H3BQQ8)
inactive: barasertib 0.176

TSPYL6 (UniProt Q8N831)
inactive: [5] 0.075 | saracatinib -0.022 | Tubastatin A 0.06 | [2] -0.03 | [6] -0.095

TRAM2 (UniProt Q15035)
inactive: [4] 0.237 | volasertib -0.2 | [5] 0.123 | sotrastaurin -0.107 | Tubastatin A -0.039 | [7] -0.111

TRPS1 isoform 2 (UniProt Q9UHF7)
inactive: [4] -0.214 | volasertib -0.33 | [8] 0.206 | [9] 0.161 | saracatinib 0.249 | sotrastaurin 0.291 | alvocidib -0.224 | [2] 0.006 | [6] 0.036 | [7] -0.121

TRIB3 (UniProt Q96RU7)
inactive: [1] 0.202 | saracatinib 0.099 | [2] -0.038 | [6] -0.218 | encorafenib -0.019 | [3] -0.042

Quoted from the entries so far (two entries):
TSPYL6 (UniProt Q8N831)
inactive: [5] 0.075 | saracatinib -0.022 | Tubastatin A 0.06 | [2] -0.03 | [6] -0.095

TRAM2 (UniProt Q15035)
inactive: [4] 0.237 | volasertib -0.2 | [5] 0.123 | sotrastaurin -0.107 | Tubastatin A -0.039 | [7] -0.111

Following part.

TTLL4 (UniProt Q14679)
inactive: [5] 0.099 | Tubastatin A -0.193 | alisertib -0.059 | gefitinib 0.01

TTC30B (UniProt Q8N4P2)
inactive: vemurafenib -0.092 | [1] 0.11 | [8] -0.062 | [9] -0.168 | sotrastaurin 0.004 | alvocidib 0.103 | defactinib 0.283 | encorafenib -0.069 | [3] 0.43

TRPM4 (UniProt Q8TD43)
inactive: barasertib 0.456 | [5] 0.066 | [8] -0.598 | [9] 0.156 | saracatinib 0.044 | sotrastaurin 0.11 | alvocidib -0.401 | Tubastatin A 0.053 | [2] -0.163 | [6] 0.14

TRMT2B (UniProt Q96GJ1)
inactive: [4] 0.089 | barasertib 0.095 | volasertib -0.038 | [5] 0.001 | [8] 0.013 | [9] -0.153 | saracatinib 0.06 | sotrastaurin -0.04 | alvocidib -0.057 | Tubastatin A -0.026 | [2] 0.041 | [6] -0.005 | alisertib -0.012 | [7] 0.174 | gefitinib 0.041

TTC3 (UniProt P53804)
inactive: [5] 0.201 | saracatinib -0.041 | Tubastatin A -0.04 | [2] 0.017 | [6] -0.075 | alisertib -0.203 | gefitinib 0.174

TRIM37 (UniProt O94972)
inactive: [1] -0.054 | [5] -0.055 | saracatinib -0.065 | sotrastaurin 0.027 | Tubastatin A -0.205 | [2] -0.081 | [6] 0.195 | encorafenib 0.161 | [3] 0.036

TRMT10B (UniProt Q6PF06)
inactive: [5] 0.196 | [8] -0.023 | [9] 0.077 | alvocidib -0.129 | Tubastatin A -0.218
